Our source for the binding values is article PMC6127602.

Sequences of proteins named here, by UniProt entry; tags and fusion partners are left off.
UniProt Q13485: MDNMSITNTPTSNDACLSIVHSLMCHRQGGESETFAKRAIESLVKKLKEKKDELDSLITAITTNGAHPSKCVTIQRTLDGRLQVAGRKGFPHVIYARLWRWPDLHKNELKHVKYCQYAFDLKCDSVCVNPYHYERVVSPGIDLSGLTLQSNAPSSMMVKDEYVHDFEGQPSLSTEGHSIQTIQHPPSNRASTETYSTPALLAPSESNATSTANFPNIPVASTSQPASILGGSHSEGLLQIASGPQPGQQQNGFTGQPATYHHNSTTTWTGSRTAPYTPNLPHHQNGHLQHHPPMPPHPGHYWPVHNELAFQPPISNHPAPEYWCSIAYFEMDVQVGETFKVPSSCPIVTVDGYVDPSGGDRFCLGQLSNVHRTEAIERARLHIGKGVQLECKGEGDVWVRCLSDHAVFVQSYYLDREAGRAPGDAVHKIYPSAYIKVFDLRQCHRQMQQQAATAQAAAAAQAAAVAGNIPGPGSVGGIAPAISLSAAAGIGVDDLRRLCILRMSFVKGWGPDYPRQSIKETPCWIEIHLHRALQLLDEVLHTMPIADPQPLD
UniProt Q99836: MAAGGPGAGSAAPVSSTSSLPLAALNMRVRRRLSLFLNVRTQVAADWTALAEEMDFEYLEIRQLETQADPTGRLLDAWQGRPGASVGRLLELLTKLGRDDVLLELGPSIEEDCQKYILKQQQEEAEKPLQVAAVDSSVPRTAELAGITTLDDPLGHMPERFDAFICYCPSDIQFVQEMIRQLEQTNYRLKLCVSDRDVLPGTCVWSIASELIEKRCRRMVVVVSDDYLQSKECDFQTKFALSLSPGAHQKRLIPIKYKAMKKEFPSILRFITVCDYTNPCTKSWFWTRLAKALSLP

These are yes or no findings as the source states them, for the method shown. Binding seen in cells or lysates may run through a third protein. Some results given as binding are weak or reduced against the parent protein; the word gives no strength.

In assay [1] the target is Flag-tagged SMAD4 (pRK-DPC4-Flag), expressed in Huh7 cells (UniProt Q13485). Put plainly: co-IP; Huh7 cells transfected with one tagged partner, the other endogenous; RIPA lysate; IP by the tag.
Assay [2] deals with endogenous MyD88 of HepG2 cells (human (endogenous in HepG2)) (UniProt Q99836). The assay can be described thus: co-IP; both proteins endogenous; HepG2 cells (Supplementary Figure S1H).
For assay [3], the target named is endogenous MyD88 of Huh7 cells (human (endogenous in Huh7)) (UniProt Q99836). The assay can be described thus: co-IP; both proteins endogenous; Huh7 cells treated with BMP6 for 24 h; methods list an anti-MyD88 antibody for IP.

Consider “endogenous MyD88 of Huh7 cells (from UniProt Q99836 1-296)”, for which the binding entry in assay [1] is “binds”.
“endogenous SMAD4 of HepG2 cells (from UniProt Q13485 1-552)”: in assay [2], the binding result is on record as “binds”.
Take “endogenous SMAD4 of Huh7 cells (from UniProt Q13485 1-552)”: the binding result in assay [3] is on record as “binds”.
